Measured data: PubChem BioAssay AID720505 (Drosophila RNAi Screening Center, 2013)
Screen: 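Fly regulators or components of the CRAC channel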 (primary screen). System: Drosophila S2R+ cells. Reagent: long dsRNA against Drosophila genes. Conditions: thapsigargin (2 µM) in calcium-free buffer to empty internal stores, then 2 mM calcium added back. Measured: 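Stores emptied by 2 µM thapsigargin without calcium, then 2 mM calcium re-added; fluo-4 fluorescence followed by FLIPR in 384-well plates, per-well averaged endpoint, raw; two screen passes, some wells retested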. Scale: calcium signal: higher = more calcium entry after store depletion. Rule for the call: 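About 1500 genes called as lowering calcium entry, by varying amounts, judged against per-plate control wells with STIM1 as positive and Rho1 as negative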. Meaning of the calls: active = called as lowering calcium entry; inactive = not called.
The screen tested about 20,000 reagents; this is a random part of those with a known target gene and a result. In the full data, about 2,100 (10%) are marked active. 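Raw plate signals without normalisation; calls rest on control-based scores that were not deposited; replicate 2 separates called from uncalled poorly.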 Not given: the amount of reagent, the time to read-out.

CG31680 (GeneID 318881): calcium signal, replicate 1 = 69.4; calcium signal, replicate 2 = 194; call = inactive
CG8563 (GeneID 38826): calcium signal, replicate 1 = 79.5; calcium signal, replicate 2 = 85.5; call = inactive
olf186-M (GeneID 37039): calcium signal, replicate 1 = 109; calcium signal, replicate 2 = 111; call = inactive
twz (GeneID 37456): calcium signal, replicate 1 = 134; calcium signal, replicate 2 = 85.2; call = inactive
RpS6 (GeneID 31700): calcium signal, replicate 1 = 115; calcium signal, replicate 2 = 96.6; call = inactive
Brd (GeneID 39620): calcium signal, replicate 1 = 71.8; calcium signal, replicate 2 = 116; call = inactive
Cyp4p3 (GeneID 35948): calcium signal, replicate 1 = 128; calcium signal, replicate 2 = 120; call = inactive
CG9705 (GeneID 39875): calcium signal, replicate 1 = 134; calcium signal, replicate 2 = 99.5; call = inactive
topi (GeneID 41199): calcium signal, replicate 1 = 117; calcium signal, replicate 2 = 77.5; call = inactive
Alp2 (GeneID 37539): calcium signal, replicate 1 = 55.9; calcium signal, replicate 2 = 190; call = inactive
Ykt6 (GeneID 31706): calcium signal, replicate 1 = 139; calcium signal, replicate 2 = 118; call = inactive
CG15873 (GeneID 37898): calcium signal, replicate 1 = 159; calcium signal, replicate 2 = 167; call = inactive

Part of the list above, set out differently.
{"Target gene": "CG8563 (GeneID 38826)", "calcium signal, replicate 1": 79.5, "calcium signal, replicate 2": 85.5, "call": "inactive"}
{"Target gene": "olf186-M (GeneID 37039)", "calcium signal, replicate 1": 109, "calcium signal, replicate 2": 111, "call": "inactive"}
